Measurements from article doi:10.1101/2022.03.21.485104.

test system: Irc3op (Ogataea polymorpha NCYC 495 leu1.1); experiment: fluorescence anisotropy; conditions: no ATP

Sequence	binding result
TGGGTCAACGTGGGCAAAGATGTCCTAGCAATGTAATCGTCTATGACGTT / GACGCTGCCGAATTCTGGCTTGCTAGGACATCTTTGCCCACGTTGACCC / CAACGTCATAGACGATTACATTGCTAGGACATGCTGTCTAGAGACTATCGA / ATCGATAGTCTCTAGACAGCATGTCCTAGCAAGCCAGAATTCGGCAGCGT [X12]	binds
GTCGGATCCTCTAGACAGCTCCATGATCACTGGCACTGGTAGAATTCGGC / CAACGTCATAGACGATTACATTGCTACATGGAGCTGTCTAGAGGATCCGA / ATGTAATCGTCTATGACGTT / TGCCGAATTCTACCAGTGCCAGTGAT [123g4 (gapped lagging)]	binds
GTCGGATCCTCTAGACAGCTCCATGATCACTGGCACTGGTAGAATTCGGC / CAACGTCATAGACGATTACATTGCTACATGGAGCTGTCTAGAGGATCCGA / TAGCAATGTAATCGTCTATGACGTT [123]	binds
GTCGGATCCTCTAGACAGCTCCATGATCACTGGCACTGGTAGAATTCGGC / CAACGTCATAGACGATTACATTGCTACATGGAGCTGTCTAGAGGATCCGA / TGCCGAATTCTACCAGTGCCAGTGATAC [124h]	binds
GTCGGATCCTCTAGACAGCTCCATGATCACTGGCACTGGTAGAATTCGGC / CAACGTCATAGACGATTACATTGCTACATGGAGCTGTCTAGAGGATCCGA / TAGCAATGTAATCGTCTATGACGTT / TGCCGAATTCTACCAGTGCCAGTGAT [1234]	binds
GTCGGATCCTCTAGACAGCTCCATGATCACTGGCACTGGTAGAATTCGGC / CAACGTCATAGACGATTACATTGCTACATGGAGCTGTCTAGAGGATCCGA / GTTAGCAATGTAATCGTCTATGACGTT [123h]	binds
GTCGGATCCTCTAGACAGCTCCATGATCACTGGCACTGGTAGAATTCGGC / CAACGTCATAGACGATTACATTGCTACATGGAGCTGTCTAGAGGATCCGA / TGCCGAATTCTACCAGTGCCAGTGAT [124]	binds
GTCGGATCCTCTAGACAGCTCCATGATCACTGGCACTGGTAGAATTCGGC / CAACGTCATAGACGATTACATTGCTACATGGAGCTGTCTAGAGGATCCGA [12 (fork, no nascent strands)]	binds
GTCGGATCCTCTAGACAGCTCCATGATCACTGGCACTGGTAGAATTCGGC / CAACGTCATAGACGATTACATTGCTACATGGAGCTGTCTAGAGGATCCGA / TGCCGAATTCTACCAGTGCCAGTGATGGACATCTTTGCCCACGTTGACCC / TGGGTCAACGTGGGCAAAGATGTCCTAGCAATGTAATCGTCTATGACGTT [X0]	binds
GTCGGATCCTCTAGACAGCTCCATGATCACTGGCACTGGTAGAATTCGGC / CAACGTCATAGACGATTACATTGCTACATGGAGCTGTCTAGAGGATCCGA / GCCGAATTCTACCAGTGCCA [124g (oligo 6 for 4)]	binds
GTCGGATCCTCTAGACAGCTCCATGATCACTGGCACTGGTAGAATTCGGC / CAACGTCATAGACGATTACATTGCTACATGGAGCTGTCTAGAGGATCCGA / ATGTAATCGTCTATGACGTT [123g (oligo 5 for 3)]	binds

same assay, conditions: no ATP, Kd less than 3-fold that of longer DNA

Sequence	binding result
GATCCAACCGCA [ss12]	binds more weakly
GATCCAACCGCA (double strand) [ds12]	binds more weakly

same assay, conditions: no ATP, weaker than without flap

Sequence	binding result
GTCGGATCCTCTAGACAGCTCCATGATCACTGGCACTGGTAGAATTCGGC / CAACGTCATAGACGATTACATTGCTACATGGAGCTGTCTAGAGGATCCGA / TAGCAATGTAATCGTCTATGACGTT / TGCCGAATTCTACCAGTGCCAGTGATAC [1234h (leading-strand flap)]	binds more weakly
GTCGGATCCTCTAGACAGCTCCATGATCACTGGCACTGGTAGAATTCGGC / CAACGTCATAGACGATTACATTGCTACATGGAGCTGTCTAGAGGATCCGA / ATGTAATCGTCTATGACGTT / TGCCGAATTCTACCAGTGCCAGTGATAC [123g4h (gapped lagging, leading flap)]	binds more weakly

The exact form of at least one protein or probe is not confirmed. Weaker means in comparison with the reference protein, sequence or condition of that experiment. At least one verdict rests on a figure or table, not on a statement of the authors.
